Assay results reported in PubChem BioAssay AID1671190 (National Center for Advancing Translational Sciences (NCATS), 2021).
About 6,100 (1.1%) of roughly 580,000 compounds were called active. This list was built around the results that the source calls inconclusive (neither active nor inactive); the mix of calls is not that of the screen. Calls come from the whole dose curve; as a rule, active = well fitted inhibition curve with a large enough effect; inconclusive = small, poorly fitted or top-dose-only effect, or another doubt; inactive = no such curve, though single readings can be large or run the other way. Potencies of inconclusive entries are doubtful fits and often do not repeat.

Amino acid sequences for entries named in this document (tags omitted). A change or cut given only in a name is not applied to a line headed by its entry.
UniProt P18054: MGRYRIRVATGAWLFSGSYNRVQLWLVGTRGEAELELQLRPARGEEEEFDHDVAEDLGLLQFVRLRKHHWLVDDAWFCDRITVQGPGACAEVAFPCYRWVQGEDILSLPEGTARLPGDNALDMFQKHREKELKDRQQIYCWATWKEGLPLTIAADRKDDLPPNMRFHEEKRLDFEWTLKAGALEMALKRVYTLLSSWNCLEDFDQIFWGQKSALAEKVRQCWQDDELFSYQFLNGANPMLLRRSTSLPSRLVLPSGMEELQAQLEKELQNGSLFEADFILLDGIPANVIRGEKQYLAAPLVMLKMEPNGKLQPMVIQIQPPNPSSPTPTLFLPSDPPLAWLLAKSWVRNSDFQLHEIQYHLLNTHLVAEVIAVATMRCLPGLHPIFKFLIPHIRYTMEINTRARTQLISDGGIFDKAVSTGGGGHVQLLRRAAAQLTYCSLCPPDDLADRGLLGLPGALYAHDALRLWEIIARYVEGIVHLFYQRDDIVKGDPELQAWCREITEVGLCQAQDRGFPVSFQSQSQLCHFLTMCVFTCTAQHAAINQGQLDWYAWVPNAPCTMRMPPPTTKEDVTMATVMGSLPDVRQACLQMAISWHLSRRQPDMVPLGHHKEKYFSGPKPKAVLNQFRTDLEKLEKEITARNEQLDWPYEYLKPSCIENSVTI

Target: Polyunsaturated fatty acid lipoxygenase ALOX12 (Homo sapiens) (UniProt P18054)
Assay: Primary qHTS assay for inhibitors of human arachidonate 12S-lipoxygenase (ALOX12): Round 2
Details: purified 12hLO, xylenol orange hydroperoxide absorbance; activity change, negative = inhibition: at 108 µM (top of the series) unless noted
In short: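 Purified human 12hLO (150 nM final) in 25 mM Hepes, 0.01% Triton X-100, pH 7.0 was preincubated 15 min at room temperature with compound. Then 40 uM arachidonic acid was added, 30 min. Hydroperoxide was read by Fe-XO absorbance ratio 573/405 nm.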
% is set by controls: 0 for no effect and ±100 for the full control effect; potency is the fitted concentration of half-maximal effect.

| SMILES | Potency | activity change, negative = inhibition |
| --- | --- | --- |
| CCN1CCN(c2nc(-c3ccccc3)nc3cc(OC)c(OC)cc23)CC1 | inconclusive: 50.1 µM [inhibitor, single point] | – |
| Cc1ccc(C(=O)OCc2nc(N)c3ccccc3n2)cc1 | – | inactive: 17.5% |
| CCCN(CCC)CCNC(=O)CS(=O)(=O)Cc1nc(-c2ccccc2F)oc1C | – | inactive: 4.33% |
| COc1ccc(C=C(C#N)C(=O)c2ccccc2)cc1 | – | inactive: 8.36% |
| COC(=O)C1CCN(Cc2cc(=O)oc3ccc(O)cc23)CC1 | inconclusive: 89.1 µM [inhibitor, partial curve, poor fit] | – |
| CC1CCN(CCOCCSc2ccc(Cl)cc2)CC1 | inconclusive: 2.51 µM [inhibitor, full curve, poor fit] | – |
| COc1ccc(OC)c(NC(=O)C2CCN(S(=O)(=O)c3ccc4c(c3)OCCO4)CC2)c1 | – | inactive: -18.8% |
| CC(NC(=O)Cc1cccs1)C(c1cccs1)N1CCN(c2ccccc2)CC1 (stereo not drawn) | inconclusive: 56.2 µM [inhibitor, partial curve, poor fit] | – |
| CNc1cc(-c2ccccc2C)ncn1 | inconclusive: 50.1 µM [inhibitor, partial curve, poor fit] | – |
| Cc1noc(-c2ccccc2Cl)c1C(=O)N1CCC(Cc2ccccc2)CC1 | inconclusive: 50.1 µM [inhibitor, partial curve, poor fit] | – |
| CCCCOc1ccc(S(=O)(=O)NNC(=O)c2cc3ccccc3o2)cc1 | inconclusive: 50.1 µM [inhibitor, partial curve, poor fit] | – |
| Cc1oc(CN2CCOCC2)cc1C(=O)O | inconclusive: 35.5 µM [inhibitor, partial curve, poor fit] | – |
| O=C(Nc1ccccc1C(F)(F)F)c1ccc2oc(=O)c(S(=O)(=O)c3ccc(F)cc3)cc2c1 | inconclusive: 50.1 µM [inhibitor, partial curve, poor fit] | – |
| CN(C)c1nc(=Nc2cccc(Cl)c2)ss1 | inconclusive: 39.8 µM [inhibitor, partial curve, poor fit] | – |
| Cc1ccc(CSc2nc3nccnc3c(=O)n2Cc2ccc3c(c2)OCO3)cc1 | inconclusive: 141 µM [inhibitor, single point] | – |
| C#CCNC(=O)C1=C[C@H](C2CCCCC2)[C@@H](CCCO)[C@H](OCC)O1 | inconclusive: 89.1 µM [inhibitor, partial curve, poor fit] | – |
| COc1ccc2nc3n(c(=O)c2c1)-c1cc2ccccc2cc1C(=O)NC3Cc1ccccc1 (stereo not drawn) | inconclusive: 0.199 µM [inhibitor, single point] | – |
| O=C(NCCC1=CCCCC1)c1ccc2c(=O)n3nc(Nc4ccccc4)sc3nc2c1 | inconclusive: 100 µM [inhibitor, partial curve, poor fit] | – |
| CCN(CCCNC(=O)CN1C(=O)COc2ccccc21)c1cccc(C)c1 | inconclusive: 112 µM [inhibitor, partial curve, poor fit] | – |
| COc1ccc2nc(NC(=O)CSc3nccc(C)n3)sc2c1 | inconclusive: 100 µM [inhibitor, single point] | – |
| COc1ccccc1C(=O)NC(=S)Nc1ccc2[nH]c(=O)[nH]c2c1 | inconclusive: 44.7 µM [inhibitor, partial curve, poor fit] | – |

At a glance, part of the list above.

| SMILES | Potency | activity change, negative = inhibition |
| --- | --- | --- |
| COC(=O)C1CCN(Cc2cc(=O)oc3ccc(O)cc23)CC1 | inconclusive: 89.1 µM [inhibitor, partial curve, poor fit] | – |
| CC1CCN(CCOCCSc2ccc(Cl)cc2)CC1 | inconclusive: 2.51 µM [inhibitor, full curve, poor fit] | – |
| COc1ccc(OC)c(NC(=O)C2CCN(S(=O)(=O)c3ccc4c(c3)OCCO4)CC2)c1 | – | inactive: -18.8% |

(list continues)

| SMILES | Potency | activity change, negative = inhibition |
| --- | --- | --- |
| COc1ccc([C@H]2C[C@@H](O)[C@@H](O)[C@@H]2NC(=O)Nc2ccc(C(F)(F)F)cc2)cc1 | inconclusive: 35.5 µM [inhibitor, partial curve] | – |
| COc1ccc2oc(=O)c(C(=O)Nc3ccccc3OC)cc2c1 | – | inactive: 3.49% |
| CCN(CC)S(=O)(=O)c1ccc2c(c1)C(=NO)c1cc(S(=O)(=O)N(CC)CC)ccc1-2 | inconclusive: 12.6 µM [inhibitor, partial curve, poor fit] | – |
| CC(C)=CCCC(C)CC(=O)O (stereo not drawn) | – | inactive: 27.6% [at 176 µM] |
| CC1(C)CC2CC(C)(CN2Cc2c(O)ccc3ccccc23)C1 (stereo not drawn) | inconclusive: 44.7 µM [inhibitor, partial curve, poor fit] | – |
| Cc1ccc2oc(N3CCN(C(=O)c4cccc(C#N)c4)CC3)nc2n1 | inconclusive: 15.8 µM [inhibitor, partial curve, poor fit] | – |
| Cn1cc(CN2CCn3c(nnc3[C@@H]3C[C@@H](O)CN3Cc3ccccc3)C2)c2ccccc21 | – | inactive: -4.36% |
| Cc1noc([C@@H]2CN(C(=O)c3ccc4cc[nH]c4c3)C[C@H]2CO)n1 | – | inactive: 16.2% |
| COc1ccc(C(=O)Nc2nnc(-c3ccccc3Br)s2)cc1OC | inconclusive: 4.47 µM [inhibitor, full curve, poor fit] | – |
| O=C1CC(NS(=O)(=O)c2ccc([N+](=O)[O-])cc2)CN1c1ccc(Cl)cc1 (stereo not drawn) | inconclusive: 79.4 µM [inhibitor, partial curve, poor fit] | – |
| COc1cc(/C=C(\C#N)C(=O)NCC2CCCO2)cc(OC)c1OC (stereo not drawn) | inconclusive: 39.8 µM [inhibitor, partial curve, poor fit] | – |
| Cc1ccc(SCc2cc(=O)oc3c(C)c(O)ccc23)cc1 | inconclusive: 17.8 µM [inhibitor, full curve, poor fit] | – |
| O=C(c1cccc(Br)c1)C(Cl)C(=O)c1cccc(Br)c1 | – | inconclusive: -33.5% [inhibitor] |
| O=C(Oc1ccc(Cl)cc1)c1cc2ccccc2oc1=O | inconclusive: 100 µM [inhibitor, single point] | – |
| NNc1ccccc1C(F)(F)F | inconclusive: 5.62 µM [inhibitor, full curve] | – |
| COC(=O)/C(=N/Nc1ccccc1Cl)Sc1nnc(C(O)c2ccccc2)n1-c1ccccc1 (stereo not drawn) | inconclusive: 44.7 µM [inhibitor, partial curve, poor fit] | – |
| CCCCC(=O)N1CCN(CCNc2cc(=O)oc3ccccc23)CC1 | inconclusive: 25.1 µM [inhibitor, partial curve, poor fit] | – |
| CCC(C(=O)Nc1ccc(OC)cc1)n1nnc(C(=O)OC)c1C(=O)OC (stereo not drawn) | – | inactive: -7.48% |
| O=C(Nc1ccc2c(N3CCCC3)ncnc2c1)c1ccc(Br)cc1 | inconclusive: 44.7 µM [inhibitor, partial curve, poor fit] | – |
| CN(C)C(=O)CN1CCN(C(C(=O)O)c2cn(CC(=O)O)c3cc(Cl)ccc23)CC1 (stereo not drawn) | inconclusive: 10 µM [inhibitor, partial curve, poor fit] | – |
| Cc1[nH]c2c(ccc3cccnc32)c1C | inconclusive: 126 µM [inhibitor, single point] | – |

| SMILES | Potency | activity change, negative = inhibition |
| --- | --- | --- |
| O=C(CN1C(=O)C2C3C=CC(C3)C2C1=O)OCC(=O)c1ccc([N+](=O)[O-])cc1 (stereo not drawn) | – | inactive: -16% |
| COc1ccc(CC(=O)Nc2ccc(-c3noc(-c4ccccc4OC)n3)cc2)cc1 | inconclusive: 126 µM [inhibitor, partial curve, poor fit] | – |
| CCOC(=O)Cn1c(=NC(=O)CC)sc2c(C)cc(C)cc21 | – | inactive: -3.58% |
| CCN(Cc1ccc2c(c1)OCO2)C(=O)/C=C/c1cccc(Br)c1 | inconclusive: 50.1 µM [inhibitor, partial curve, poor fit] | – |
| Cc1cc(Cl)c2ccc3ccccc3c2n1 | inconclusive: 56.2 µM [inhibitor, partial curve, poor fit] | – |
| CCCCn1nc(C(=O)NCC(c2ccco2)N2CCCCC2)c2ccccc2c1=O (stereo not drawn) | inconclusive: 112 µM [inhibitor, partial curve, poor fit] | – |
| S=C(NCCc1ccccc1)Nc1ccccc1Cc1ccccc1 | inconclusive: 44.7 µM [inhibitor, partial curve, poor fit] | – |
| C=CCSc1nnc(-c2c[nH]c3ccccc23)n1CCOC | – | inactive: 11.6% |
| C#CCOCCOCCOCCNc1nc(N2CCN(C(=O)Cn3cc(CCCN=C(N)N)nn3)CC2)nc(N2CCN(C(=O)[C@H](CCCCN)n3cc(CCC(=O)O)nn3)CC2)n1 | inconclusive: 3.55 µM [inhibitor, full curve, poor fit] | – |
| Cc1ccc(Cc2cncc(O)c2)cc1S(=O)(=O)O | inconclusive: 31.6 µM [inhibitor, single point] | – |
| CCc1cccc(C)c1NC(=O)c1nn(Cc2ccccc2)c(=O)c2ccccc12 | inconclusive: 63.1 µM [inhibitor, partial curve, poor fit] | – |
| O=C1Nc2ccccc2C1=Nc1ccccc1-c1ccccc1 | – | inactive: -12% |
| CC(=O)N[C@@H]1[C@@H](O)[C@@H]2OC(c3ccccc3)OC[C@H]2O[C@@H]1N=[N+]=[N-] (stereo partly drawn) | inconclusive: 56.2 µM [inhibitor, partial curve, poor fit] | – |
| Cc1cccc(C(=O)Oc2ccc(/C=N/O)cc2)c1 | inconclusive: 0.0891 µM [inhibitor, full curve, poor fit] | – |
| COc1cccc(Nc2ncc3nc(-c4ccc(Cl)cc4)c(=O)n(C4CC4)c3n2)c1 | inconclusive: 4.47 µM [inhibitor, full curve, poor fit] | – |
| CSc1ncc(CN2CCCC(C(=O)Nc3ccc(-c4ccco4)cc3)C2)cn1 (stereo not drawn) | – | inactive: 2.37% |
| O[C@@H]1CN(Cc2ccc(-c3ccn[nH]3)o2)CC[C@H]1c1ccc2c(c1)OCO2 | – | inactive: 69.7% |
| CCc1c(C(=O)NCCc2cccc(C)c2)[nH]c(C)c1C(C)=O | inconclusive: 89.1 µM [inhibitor, partial curve, poor fit] | – |
| CCCCCC(=O)Nc1cccc(C2=NOC3(C2)C[C@@H](C(N)=O)N(C(=O)c2cc([N+](=O)[O-])cc([N+](=O)[O-])c2)C3)c1 (stereo partly drawn) | inconclusive: 39.8 µM [inhibitor, partial curve, poor fit] | – |
| Cc1ccc(NC(=O)COC(=O)c2cccc(O)c2)c(Cl)c1 | – | inactive: -20.4% |
| Cc1ccc(NC(=O)c2csc(-c3ccccc3)c2C)cc1 | – | inactive: -24.9% |

Shown bar-delimited: entries from further up.
SMILES | Potency | activity change, negative = inhibition
CCCCn1nc(C(=O)NCC(c2ccco2)N2CCCCC2)c2ccccc2c1=O (stereo not drawn) | inconclusive: 112 µM [inhibitor, partial curve, poor fit] | –
CC(=O)N[C@@H]1[C@@H](O)[C@@H]2OC(c3ccccc3)OC[C@H]2O[C@@H]1N=[N+]=[N-] (stereo partly drawn) | inconclusive: 56.2 µM [inhibitor, partial curve, poor fit] | –
